Some of the results follow.
Compound: Cc1ccc(NC(=O)c2ccc(CN3CC[C@H](N(C)C)C3)c(C(F)(F)F)c2)cc1Nc1nccc(-c2cncnc2)n1 [bafetinib]
Test: log2 fold change, soluble protein after heating vs DMSO (PISA); higher = thermal stabilisation; K562 cells, 10 uM, 30 min; active = over 0.2 and 3.5 SD of the protein, either way, in both replicates (recomputed)
Procedure, shortened: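 Values are thermal stability changes relative to control samples and are taken from duplicates. They are stated as log2 fold changes. Before quantification by TMTpro 16plex LC-MS/MS with equalised channel sums, K562 cells at 2×10^6 cells/mL were treated with 10 μM compound for 30 min, heated in aliquots for 3 min across 48°C-58°C, pooled, extracted in PBS with 0.5% NP-40 at 4°C, and centrifuged at 21,000xg for 90 min to give the soluble supernatant.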

Protein sequences, listed by entry. Tags and fused reporters are not part of them. Lines headed by an entry give the natural chain unless they say otherwise; changes in a name come on top.
UniProt P24752: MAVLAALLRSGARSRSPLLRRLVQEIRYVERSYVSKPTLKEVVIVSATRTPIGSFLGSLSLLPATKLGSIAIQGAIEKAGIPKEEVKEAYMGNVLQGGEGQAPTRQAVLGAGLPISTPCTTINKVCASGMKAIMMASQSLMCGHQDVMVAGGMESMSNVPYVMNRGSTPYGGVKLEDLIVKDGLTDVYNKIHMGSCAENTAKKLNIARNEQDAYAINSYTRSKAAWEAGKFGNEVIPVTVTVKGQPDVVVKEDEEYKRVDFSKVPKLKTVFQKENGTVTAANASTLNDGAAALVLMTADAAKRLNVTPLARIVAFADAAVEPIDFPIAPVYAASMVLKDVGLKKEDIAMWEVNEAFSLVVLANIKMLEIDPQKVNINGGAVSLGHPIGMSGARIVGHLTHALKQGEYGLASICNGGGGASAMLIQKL
UniProt P55265: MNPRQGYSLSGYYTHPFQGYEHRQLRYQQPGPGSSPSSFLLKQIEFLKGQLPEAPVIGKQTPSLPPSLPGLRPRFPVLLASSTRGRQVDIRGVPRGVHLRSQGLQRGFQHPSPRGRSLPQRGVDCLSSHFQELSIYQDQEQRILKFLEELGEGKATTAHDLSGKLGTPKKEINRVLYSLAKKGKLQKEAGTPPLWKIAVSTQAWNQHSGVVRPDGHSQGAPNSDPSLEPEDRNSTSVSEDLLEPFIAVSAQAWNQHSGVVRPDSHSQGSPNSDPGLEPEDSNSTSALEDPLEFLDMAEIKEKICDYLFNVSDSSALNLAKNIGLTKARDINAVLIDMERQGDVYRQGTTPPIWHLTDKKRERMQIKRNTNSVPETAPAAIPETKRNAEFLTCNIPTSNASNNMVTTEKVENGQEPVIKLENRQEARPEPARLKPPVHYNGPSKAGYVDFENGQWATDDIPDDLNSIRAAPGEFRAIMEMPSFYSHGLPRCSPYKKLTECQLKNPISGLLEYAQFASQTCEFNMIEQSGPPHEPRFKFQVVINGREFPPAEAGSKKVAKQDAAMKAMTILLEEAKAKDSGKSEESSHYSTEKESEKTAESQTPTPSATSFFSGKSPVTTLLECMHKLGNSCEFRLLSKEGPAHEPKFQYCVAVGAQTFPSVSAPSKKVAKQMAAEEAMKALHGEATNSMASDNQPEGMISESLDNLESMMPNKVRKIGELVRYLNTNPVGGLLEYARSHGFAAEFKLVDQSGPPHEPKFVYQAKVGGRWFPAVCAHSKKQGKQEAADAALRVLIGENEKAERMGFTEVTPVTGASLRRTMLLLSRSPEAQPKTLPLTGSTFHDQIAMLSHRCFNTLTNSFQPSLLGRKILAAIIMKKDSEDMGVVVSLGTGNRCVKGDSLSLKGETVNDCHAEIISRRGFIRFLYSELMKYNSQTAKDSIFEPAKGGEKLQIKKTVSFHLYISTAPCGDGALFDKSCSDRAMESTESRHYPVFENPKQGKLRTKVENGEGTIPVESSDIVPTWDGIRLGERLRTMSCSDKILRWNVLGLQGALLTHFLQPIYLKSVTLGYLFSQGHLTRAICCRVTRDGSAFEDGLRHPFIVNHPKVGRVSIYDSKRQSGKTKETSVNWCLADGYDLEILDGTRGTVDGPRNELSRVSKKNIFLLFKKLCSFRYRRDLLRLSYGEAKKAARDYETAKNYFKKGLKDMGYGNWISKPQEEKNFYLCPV
UniProt O14639: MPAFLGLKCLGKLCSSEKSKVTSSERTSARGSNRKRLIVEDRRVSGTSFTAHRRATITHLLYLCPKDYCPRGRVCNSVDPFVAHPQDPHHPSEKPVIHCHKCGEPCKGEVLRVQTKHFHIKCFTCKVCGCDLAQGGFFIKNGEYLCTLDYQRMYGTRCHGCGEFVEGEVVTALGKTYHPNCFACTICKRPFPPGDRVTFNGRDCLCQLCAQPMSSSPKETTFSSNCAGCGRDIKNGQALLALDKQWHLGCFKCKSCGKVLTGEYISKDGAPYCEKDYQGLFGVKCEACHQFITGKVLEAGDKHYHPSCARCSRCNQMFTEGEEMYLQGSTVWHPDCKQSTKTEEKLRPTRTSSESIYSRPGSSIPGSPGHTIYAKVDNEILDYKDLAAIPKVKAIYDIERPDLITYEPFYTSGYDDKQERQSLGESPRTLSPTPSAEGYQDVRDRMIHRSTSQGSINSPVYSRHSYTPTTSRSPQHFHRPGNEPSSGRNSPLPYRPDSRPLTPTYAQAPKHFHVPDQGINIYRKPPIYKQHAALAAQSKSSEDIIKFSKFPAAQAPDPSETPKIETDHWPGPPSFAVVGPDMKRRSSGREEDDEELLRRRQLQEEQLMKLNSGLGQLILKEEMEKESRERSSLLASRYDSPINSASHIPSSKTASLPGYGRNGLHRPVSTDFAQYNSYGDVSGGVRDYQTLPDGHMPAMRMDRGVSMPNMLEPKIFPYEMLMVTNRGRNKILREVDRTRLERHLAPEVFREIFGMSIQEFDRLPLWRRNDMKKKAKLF
UniProt P78536: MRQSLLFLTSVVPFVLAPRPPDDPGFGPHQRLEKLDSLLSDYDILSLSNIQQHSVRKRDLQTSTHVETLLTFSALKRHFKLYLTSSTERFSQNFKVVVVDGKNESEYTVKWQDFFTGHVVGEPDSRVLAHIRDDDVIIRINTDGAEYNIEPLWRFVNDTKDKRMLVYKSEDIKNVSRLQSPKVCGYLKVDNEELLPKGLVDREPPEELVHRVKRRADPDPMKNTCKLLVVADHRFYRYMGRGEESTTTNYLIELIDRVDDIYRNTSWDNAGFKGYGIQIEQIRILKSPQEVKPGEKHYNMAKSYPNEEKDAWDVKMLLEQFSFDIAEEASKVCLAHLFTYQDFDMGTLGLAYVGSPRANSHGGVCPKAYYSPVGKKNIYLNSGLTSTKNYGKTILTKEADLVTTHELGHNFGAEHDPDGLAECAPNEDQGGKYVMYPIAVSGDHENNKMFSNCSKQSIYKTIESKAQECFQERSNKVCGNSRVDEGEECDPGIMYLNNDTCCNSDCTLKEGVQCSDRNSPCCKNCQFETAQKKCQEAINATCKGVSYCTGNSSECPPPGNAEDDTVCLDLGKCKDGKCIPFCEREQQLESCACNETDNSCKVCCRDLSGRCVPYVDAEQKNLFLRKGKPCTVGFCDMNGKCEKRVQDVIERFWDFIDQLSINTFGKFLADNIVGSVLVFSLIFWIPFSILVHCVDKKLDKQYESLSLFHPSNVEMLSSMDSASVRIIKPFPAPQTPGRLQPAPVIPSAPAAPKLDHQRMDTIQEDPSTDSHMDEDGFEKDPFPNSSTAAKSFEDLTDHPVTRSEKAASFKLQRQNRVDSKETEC
UniProt P01023, whole entry, looked up: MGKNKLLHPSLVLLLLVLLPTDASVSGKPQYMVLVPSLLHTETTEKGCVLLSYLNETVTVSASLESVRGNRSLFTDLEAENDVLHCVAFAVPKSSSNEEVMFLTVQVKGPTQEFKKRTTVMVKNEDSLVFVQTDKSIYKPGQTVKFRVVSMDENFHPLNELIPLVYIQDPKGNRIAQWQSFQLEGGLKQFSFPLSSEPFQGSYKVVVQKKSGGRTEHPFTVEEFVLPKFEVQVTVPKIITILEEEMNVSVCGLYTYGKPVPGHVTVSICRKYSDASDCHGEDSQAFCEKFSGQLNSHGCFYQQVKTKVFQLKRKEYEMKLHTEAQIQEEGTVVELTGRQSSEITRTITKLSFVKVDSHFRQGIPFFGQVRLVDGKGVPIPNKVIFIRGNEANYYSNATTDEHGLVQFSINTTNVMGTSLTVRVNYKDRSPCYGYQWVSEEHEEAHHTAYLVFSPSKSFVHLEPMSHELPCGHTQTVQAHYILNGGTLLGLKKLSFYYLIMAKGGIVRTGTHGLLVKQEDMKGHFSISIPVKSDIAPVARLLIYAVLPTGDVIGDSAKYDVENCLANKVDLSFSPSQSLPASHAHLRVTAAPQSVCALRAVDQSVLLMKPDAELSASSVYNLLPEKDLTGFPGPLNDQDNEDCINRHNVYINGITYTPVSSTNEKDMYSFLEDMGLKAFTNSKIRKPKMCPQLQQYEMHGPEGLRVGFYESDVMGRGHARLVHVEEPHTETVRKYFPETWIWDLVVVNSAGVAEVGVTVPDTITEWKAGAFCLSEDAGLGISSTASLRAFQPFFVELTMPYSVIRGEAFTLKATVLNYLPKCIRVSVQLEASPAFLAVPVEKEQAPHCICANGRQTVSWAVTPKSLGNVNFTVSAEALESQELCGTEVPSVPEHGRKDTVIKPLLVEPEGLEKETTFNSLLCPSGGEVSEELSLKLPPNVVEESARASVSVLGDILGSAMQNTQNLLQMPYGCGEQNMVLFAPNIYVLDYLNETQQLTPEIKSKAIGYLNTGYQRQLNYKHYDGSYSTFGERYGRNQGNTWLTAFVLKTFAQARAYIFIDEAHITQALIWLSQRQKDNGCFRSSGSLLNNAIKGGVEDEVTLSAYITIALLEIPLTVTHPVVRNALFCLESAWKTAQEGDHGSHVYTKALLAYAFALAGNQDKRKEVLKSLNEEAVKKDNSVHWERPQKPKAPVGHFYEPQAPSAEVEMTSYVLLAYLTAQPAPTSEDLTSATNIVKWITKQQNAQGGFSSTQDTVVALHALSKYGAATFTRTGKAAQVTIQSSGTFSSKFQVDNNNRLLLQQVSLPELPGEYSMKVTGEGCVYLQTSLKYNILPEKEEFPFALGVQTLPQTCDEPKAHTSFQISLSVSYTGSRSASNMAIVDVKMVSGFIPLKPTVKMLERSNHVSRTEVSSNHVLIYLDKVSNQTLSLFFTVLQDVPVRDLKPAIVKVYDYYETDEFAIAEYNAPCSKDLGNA
UniProt Q9UKU7: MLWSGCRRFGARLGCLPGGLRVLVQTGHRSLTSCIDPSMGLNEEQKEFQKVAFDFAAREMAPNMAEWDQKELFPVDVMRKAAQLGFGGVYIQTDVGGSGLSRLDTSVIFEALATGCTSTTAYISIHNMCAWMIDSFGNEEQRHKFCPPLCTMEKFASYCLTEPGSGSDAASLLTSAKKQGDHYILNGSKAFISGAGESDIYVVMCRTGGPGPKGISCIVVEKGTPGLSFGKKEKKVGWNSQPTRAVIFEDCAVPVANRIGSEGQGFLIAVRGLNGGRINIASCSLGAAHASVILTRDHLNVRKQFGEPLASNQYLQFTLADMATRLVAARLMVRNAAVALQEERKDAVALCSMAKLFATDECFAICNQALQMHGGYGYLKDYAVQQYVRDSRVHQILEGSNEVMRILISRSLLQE
UniProt P28288: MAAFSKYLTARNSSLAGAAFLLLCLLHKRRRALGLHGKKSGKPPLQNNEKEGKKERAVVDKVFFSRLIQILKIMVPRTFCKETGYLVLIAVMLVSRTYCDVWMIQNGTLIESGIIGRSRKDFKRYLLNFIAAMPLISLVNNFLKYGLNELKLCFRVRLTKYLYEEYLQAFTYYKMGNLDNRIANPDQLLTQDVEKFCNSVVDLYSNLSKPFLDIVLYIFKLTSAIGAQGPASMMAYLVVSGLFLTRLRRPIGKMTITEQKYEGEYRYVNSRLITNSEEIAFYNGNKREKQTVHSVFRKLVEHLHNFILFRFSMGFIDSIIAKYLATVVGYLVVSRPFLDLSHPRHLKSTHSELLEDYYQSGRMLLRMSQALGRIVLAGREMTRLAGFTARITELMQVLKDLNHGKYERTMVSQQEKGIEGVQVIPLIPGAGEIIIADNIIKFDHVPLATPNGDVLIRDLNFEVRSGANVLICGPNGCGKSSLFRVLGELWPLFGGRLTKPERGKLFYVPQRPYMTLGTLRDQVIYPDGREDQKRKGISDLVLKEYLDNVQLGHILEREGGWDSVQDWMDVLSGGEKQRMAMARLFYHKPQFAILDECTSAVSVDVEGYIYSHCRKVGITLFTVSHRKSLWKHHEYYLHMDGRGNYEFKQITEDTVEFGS
UniProt Q7Z6V5: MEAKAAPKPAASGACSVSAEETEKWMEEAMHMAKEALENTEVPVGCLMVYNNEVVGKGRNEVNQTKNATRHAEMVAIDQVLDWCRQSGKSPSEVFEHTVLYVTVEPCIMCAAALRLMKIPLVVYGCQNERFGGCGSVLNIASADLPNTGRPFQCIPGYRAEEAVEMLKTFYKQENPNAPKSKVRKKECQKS
UniProt Q9H568: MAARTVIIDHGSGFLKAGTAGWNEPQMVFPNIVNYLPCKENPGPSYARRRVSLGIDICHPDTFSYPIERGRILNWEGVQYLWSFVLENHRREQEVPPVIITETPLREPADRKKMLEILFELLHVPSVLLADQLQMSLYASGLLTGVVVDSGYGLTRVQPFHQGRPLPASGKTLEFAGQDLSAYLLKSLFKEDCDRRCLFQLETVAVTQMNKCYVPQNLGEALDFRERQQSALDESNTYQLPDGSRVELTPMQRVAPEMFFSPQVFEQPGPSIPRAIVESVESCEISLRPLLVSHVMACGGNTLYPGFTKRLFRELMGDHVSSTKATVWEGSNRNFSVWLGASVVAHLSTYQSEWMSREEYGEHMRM

log2 fold change, inactive:
ACACA isoform 4 (UniProt Q13085) 0.085
ACSS2 isoform 2 (UniProt Q9NR19) -0.05
ACOX1 isoform 2 (UniProt Q15067) -0.005
ACAT1 (UniProt P24752) 0.01
ACTR2 (UniProt P61160) -0.003
ACADS (UniProt P16219) -0.025
ADAM10 (UniProt O14672) -0.019
ABHD12 isoform 2 (UniProt Q8N2K0) -0.044
ADAR isoform 4 (UniProt P55265) 0.368
ACTR10 (UniProt Q9NZ32) -0.033
ABLIM1 (UniProt O14639) 0.386
ABCF3 (UniProt Q9NUQ8) 0.124
ABRAXAS2 (UniProt Q15018) -0.014
ACTA1 (UniProt P68133) -0.067
ADAM17 (UniProt P78536) -0.045
A2M (UniProt P01023) -0.095
ACADSB (UniProt P45954) 0.029
ACOT8 (UniProt O14734) -0.039
ABCC4 (UniProt O15439) 0.008
ACAD8 (UniProt Q9UKU7) 0.092
ACY1 (UniProt Q03154) -0.003
AASDHPPT (UniProt Q9NRN7) -0.029
ACTL6A (UniProt O96019) -0.034
ABCB7 isoform 2 (UniProt O75027) -0.057
ADAL (UniProt Q6DHV7) -0.016
ACTR6 (UniProt Q9GZN1) -0.075
ACO1 (UniProt P21399) -0.004
ACTR3 (UniProt P61158) -0.026
ABCD3 (UniProt P28288) 0.077
ACAA1 (UniProt P09110) -0.021
ABCE1 (UniProt P61221) -0.005
ADAT2 (UniProt Q7Z6V5) -0.019
ABCF1 (UniProt Q8NE71) 0.135
ACTN4 (UniProt O43707) -0.027
AARS (UniProt P49588) -0.035
ACTL8 (UniProt Q9H568) -0.078

Retrieved one by one from the list above (three):
log2 fold change, inactive:
ADAR isoform 4 (UniProt P55265) 0.368
ADAL (UniProt Q6DHV7) -0.016
ACOT8 (UniProt O14734) -0.039

From the supplement of paper PMC10849652
